We go through two molecules from paper PMC6953139.

Chains of the proteins cited; added tags and fusions are not shown.
UniProt Q9UQQ2: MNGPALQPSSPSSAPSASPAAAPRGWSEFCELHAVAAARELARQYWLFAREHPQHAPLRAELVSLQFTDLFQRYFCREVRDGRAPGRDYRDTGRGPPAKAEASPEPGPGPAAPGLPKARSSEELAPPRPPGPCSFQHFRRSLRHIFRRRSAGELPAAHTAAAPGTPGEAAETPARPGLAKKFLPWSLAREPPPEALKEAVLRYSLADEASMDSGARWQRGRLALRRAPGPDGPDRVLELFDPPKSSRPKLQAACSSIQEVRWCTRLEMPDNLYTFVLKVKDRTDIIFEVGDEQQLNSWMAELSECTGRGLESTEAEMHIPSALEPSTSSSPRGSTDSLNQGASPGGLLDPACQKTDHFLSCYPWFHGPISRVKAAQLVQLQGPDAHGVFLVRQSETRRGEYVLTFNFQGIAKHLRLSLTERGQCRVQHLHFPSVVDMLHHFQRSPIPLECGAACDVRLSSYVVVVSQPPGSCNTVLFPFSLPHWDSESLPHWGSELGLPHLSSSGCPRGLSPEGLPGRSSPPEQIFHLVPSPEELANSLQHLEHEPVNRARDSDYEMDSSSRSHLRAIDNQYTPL
UniProt P62258: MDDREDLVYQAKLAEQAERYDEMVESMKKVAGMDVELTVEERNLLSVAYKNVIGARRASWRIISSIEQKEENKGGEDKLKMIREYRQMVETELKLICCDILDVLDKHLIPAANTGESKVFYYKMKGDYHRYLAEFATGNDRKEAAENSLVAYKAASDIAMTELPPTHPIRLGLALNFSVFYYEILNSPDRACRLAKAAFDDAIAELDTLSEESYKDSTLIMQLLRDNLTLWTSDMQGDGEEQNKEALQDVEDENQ

For this assay, the target named is LNK-flag (adaptor protein LNK, SH2B3), expressed in 293FT cells (UniProt Q9UQQ2). Nature of the assay: affinity purification with mass spectrometry; LNK-flag from transfected 293FT lysate held on FLAG beads, 4 °C overnight, IP lysis buffer (150 mM NaCl; 1% NP-40), eluted with FLAG peptide; SDS-PAGE, silver staining, unique bands analysed by LC-MS; empty pMSCV vector as control.

No constants are given. Whether binding was seen depends on the method and setting. In cells and extracts the contact can be indirect. A yes stands for co-enrichment or nearness to the bait. Other partners may have been found.

As for “14-3-3ε (YWHAE), endogenous in 293FT cells (from UniProt P62258 1-255)”, the binding result is “binds”.

B1: 14-3-3γ (YWHAG), endogenous in 293FT cells (protein, UniProt P61981 1-247)
chain: MVDREQLVQKARLAEQAERYDDMAAAMKNVTELNEPLSNEERNLLSVAYKNVVGARRSSWRVISSIEQKTSADGNEKKIEMVRAYREKIEKELEAVCQDVLSLLDNYLIKNCSETQYESKVFYLKMKGDYYRYLAEVATGEKRATVVESSEKAYSEAHEISKEHMQPTHPIRLGLALNYSVFYYEIQNAPEQACHLAKTAFDDAIAELDTLNEDSYKDSTLIMQLLRDNLTLWTSDQQDDDGGEGNN
Regarding B1, the binding result is “binds”.
